# Assay results from US20060183773A1, “Uses of methylphenidate derivatives” (priority 2005, published 2006).
# For at least one compound, name, drawing or mass did not settle the structure.
# What was measured:
# Format in all cases: cell-based, human
# IFNγ = IFNγ release by PBL, ELISA; conditions: donor GR467, Cpd II 15 μg/ml, MP 15 μg/ml, Dex 10 μM, FIG. 4
# Procedure: (§1) After this incubation, PHA was added to give a final concentration of 2 μg/ml, and the cells were incubated for an additional 96 hours at 37° C., 5% CO2. All cultures were performed in triplicate. Cells were then removed by centrifugation at 1000 rpm for 10 minutes, and the culture medium collected.
# (§2) Release of IL-13 and interferon gamma (IFNγ) into the culture medium was measured by ELISA. To perform the ELISA, matched pairs of antibodies against human IL-13 and IFNγ were purchased from Pierce Biotechnology and Biosource, respectively. ELISA strip well plates were coated with 10 μg/ml of antibody (in phosphate-buffered saline (PBS)) to IL-13 and 4 μg/ml of antibody to IFNγ (in PBS) overnight at room temperature. The plates were then blocked using a 4% BSA solution in PBS for one hour, followed by the addition of 50 μl of experimental culture medium per well in duplicate. The plates were incubated at room temperature for one hour and then washed using 50 mM Tris pH 8.0 with 0.1% Tween 20. Then, solutions of 400 ng/ml biotinylated second antibody to IL-13 and 500 ng/ml biotinylated second antibody to IFNγ were made in blocking buffer, and 100 μl were added per well. The plates were incubated for 1 hour and washed again. […] OD was determined using microplate reader with a 450 nm filter.
# TNFα = TNFα release by PBL, ELISA; conditions: donor GR191; 5 μg/ml PHA, 72 h; Cpd II 15 and 50 μg/ml, Dex 10 μM; FIG. 7
# Procedure: (§3) After this incubation, PHA was added to give a final concentration of 5 μg/ml, and the cells were incubated for an additional 72 hours at 37° C., 5% CO2. All cultures were performed in triplicate. Cells were then removed by centrifugation at 1000 rpm for 10 minutes.
# The TNFα ELISA was performed as described in Example 2 using matched pair antibodies from Pierce Endogen (2 μg/ml for the coating antibody and 250 ng/ml for the second antibody).
# [1] = test system: peripheral blood lymphocytes (PBL); assay: PBL proliferation, Promega cell titer assay; conditions: donor GR283; PHA 2, 5, 20 μg/ml; Cpd II 5, 15, 50 μg/ml, Dex 10 μg/ml; FIGS. 1A-C
# Procedure: Whole blood was drawn from GR283, a human volunteer with known allergies, into a glass vacutainer tube containing no anticoagulant. This blood was allowed to clot, and the serum was removed by centrifugation and then heat inactivated by placing it in a water bath at 56° C. for 30 minutes. Whole blood from GR283 was also drawn into a glass vacutainer tube containing heparin and used for peripheral blood lymphocytes (PBL) isolation as follows. Whole blood was layered over room temperature Histopaque 1077 solution and centrifuged at 2000 rpm for 15 minutes at room temperature. Cells at the plasma-Histopaque interface were then removed and washed with culture medium (IMDM medium with 10% heat-inactivated GR283 serum plus 1% penicillin/streptomycin) at 37° C.
# Then, GR283's PBL in culture medium were added to the wells to give a final concentration of 150,000 cells per well, and the plates were incubated at 37° C., 5% CO2 for 24 hours. […]
# Cell proliferation was assayed by adding 20 μl of Promega cell titer solution to each well and incubating the plate for an additional 4 hours. […] After the 4-hour incubation, the optical density (OD) at 530 nm of each well was measured. […]
# IL-13 = IL-13 release by PBL, ELISA; conditions: Dex 10 μM
# Procedure: as §1
# as §2, with “well.” for “well. The plates were incubated for 1 hour and washed again.”, “filter. […]” for “filter.”
# The supernatants were collected, and the concentrations of IL-13 and tumor necrosis factor alpha (TNFα) in the supernatants were measured by ELISA. […]
# T cells = assay: CD69+TCR staining of PBL, flow cytometry (T-cell activation); conditions: compound alone, no PHA
# Procedure: as §3
# The cells were further analyzed by flow cytometry. Annexin was used to determine populations of dead or dying cells. Anti-CD69 antibody was used to establish the level of cellular activation. Antibody to T-cell receptor αβ (TCR) was also used. Recombinant Annexin 5 (PE and FITC conjugates) and the antibodies were all purchase from Caltag (Burlingham, Calif.) and used following the manufacturer's recommendations.
structure (smiles),measurement,setting,value
"C[C@@H]1C[C@H]2[C@@H]3CCC4=CC(=O)C=C[C@]4(C)[C@@]3(F)[C@@H](O)C[C@]2(C)[C@@]1(O)C(=O)CO [dexamethasone, reference compound]","IFNγ release, cells stimulated with PHA","IFNγ; 2 μg/ml PHA, 96 h",significantly inhibited IFNγ release
same,"IFNγ release, unstimulated cells",IFNγ; no PHA,significantly inhibited IFNγ release
same,release of TNFα from PHA-stimulated PBL,TNFα,significantly inhibited the release of TNFα
same,proliferation of PBL stimulated with PHA (OD at 530 nm),[1],significantly inhibited the proliferation of PBL stimulated with PHA in a dose-dependent manner
same,release of IL-13 from PHA-stimulated PBL,"IL-13; donor GR191, 5 μg/ml PHA, 72 h, Cpd II 15 and 50 μg/ml, FIG. 6",significantly inhibited the release of IL-13
same,IL-13 release induced by PHA,"IL-13; donor GR467, 2 μg/ml PHA, 96 h, Cpd II 15 μg/ml, MP 15 μg/ml, FIG. 3",significantly inhibited IL-13 release induced by PHA
same,CD69+TCR staining (activated T cells),T cells,not detected
